Patent US20070225242A1, “Method and composition for treating and preventing tumor metastasis in vivo” (The Board of Trustees of the Leland Stanford Junior …, priority 2005, published 2007)
No constants are given. Whether binding was seen depends on the method and setting. Some results given as binding are weak or reduced against the parent protein; the word gives no strength.

Amino acid sequences for entries named in this document (tags omitted). Residues count along the entry.
UniProt P11276, residues 33-2477: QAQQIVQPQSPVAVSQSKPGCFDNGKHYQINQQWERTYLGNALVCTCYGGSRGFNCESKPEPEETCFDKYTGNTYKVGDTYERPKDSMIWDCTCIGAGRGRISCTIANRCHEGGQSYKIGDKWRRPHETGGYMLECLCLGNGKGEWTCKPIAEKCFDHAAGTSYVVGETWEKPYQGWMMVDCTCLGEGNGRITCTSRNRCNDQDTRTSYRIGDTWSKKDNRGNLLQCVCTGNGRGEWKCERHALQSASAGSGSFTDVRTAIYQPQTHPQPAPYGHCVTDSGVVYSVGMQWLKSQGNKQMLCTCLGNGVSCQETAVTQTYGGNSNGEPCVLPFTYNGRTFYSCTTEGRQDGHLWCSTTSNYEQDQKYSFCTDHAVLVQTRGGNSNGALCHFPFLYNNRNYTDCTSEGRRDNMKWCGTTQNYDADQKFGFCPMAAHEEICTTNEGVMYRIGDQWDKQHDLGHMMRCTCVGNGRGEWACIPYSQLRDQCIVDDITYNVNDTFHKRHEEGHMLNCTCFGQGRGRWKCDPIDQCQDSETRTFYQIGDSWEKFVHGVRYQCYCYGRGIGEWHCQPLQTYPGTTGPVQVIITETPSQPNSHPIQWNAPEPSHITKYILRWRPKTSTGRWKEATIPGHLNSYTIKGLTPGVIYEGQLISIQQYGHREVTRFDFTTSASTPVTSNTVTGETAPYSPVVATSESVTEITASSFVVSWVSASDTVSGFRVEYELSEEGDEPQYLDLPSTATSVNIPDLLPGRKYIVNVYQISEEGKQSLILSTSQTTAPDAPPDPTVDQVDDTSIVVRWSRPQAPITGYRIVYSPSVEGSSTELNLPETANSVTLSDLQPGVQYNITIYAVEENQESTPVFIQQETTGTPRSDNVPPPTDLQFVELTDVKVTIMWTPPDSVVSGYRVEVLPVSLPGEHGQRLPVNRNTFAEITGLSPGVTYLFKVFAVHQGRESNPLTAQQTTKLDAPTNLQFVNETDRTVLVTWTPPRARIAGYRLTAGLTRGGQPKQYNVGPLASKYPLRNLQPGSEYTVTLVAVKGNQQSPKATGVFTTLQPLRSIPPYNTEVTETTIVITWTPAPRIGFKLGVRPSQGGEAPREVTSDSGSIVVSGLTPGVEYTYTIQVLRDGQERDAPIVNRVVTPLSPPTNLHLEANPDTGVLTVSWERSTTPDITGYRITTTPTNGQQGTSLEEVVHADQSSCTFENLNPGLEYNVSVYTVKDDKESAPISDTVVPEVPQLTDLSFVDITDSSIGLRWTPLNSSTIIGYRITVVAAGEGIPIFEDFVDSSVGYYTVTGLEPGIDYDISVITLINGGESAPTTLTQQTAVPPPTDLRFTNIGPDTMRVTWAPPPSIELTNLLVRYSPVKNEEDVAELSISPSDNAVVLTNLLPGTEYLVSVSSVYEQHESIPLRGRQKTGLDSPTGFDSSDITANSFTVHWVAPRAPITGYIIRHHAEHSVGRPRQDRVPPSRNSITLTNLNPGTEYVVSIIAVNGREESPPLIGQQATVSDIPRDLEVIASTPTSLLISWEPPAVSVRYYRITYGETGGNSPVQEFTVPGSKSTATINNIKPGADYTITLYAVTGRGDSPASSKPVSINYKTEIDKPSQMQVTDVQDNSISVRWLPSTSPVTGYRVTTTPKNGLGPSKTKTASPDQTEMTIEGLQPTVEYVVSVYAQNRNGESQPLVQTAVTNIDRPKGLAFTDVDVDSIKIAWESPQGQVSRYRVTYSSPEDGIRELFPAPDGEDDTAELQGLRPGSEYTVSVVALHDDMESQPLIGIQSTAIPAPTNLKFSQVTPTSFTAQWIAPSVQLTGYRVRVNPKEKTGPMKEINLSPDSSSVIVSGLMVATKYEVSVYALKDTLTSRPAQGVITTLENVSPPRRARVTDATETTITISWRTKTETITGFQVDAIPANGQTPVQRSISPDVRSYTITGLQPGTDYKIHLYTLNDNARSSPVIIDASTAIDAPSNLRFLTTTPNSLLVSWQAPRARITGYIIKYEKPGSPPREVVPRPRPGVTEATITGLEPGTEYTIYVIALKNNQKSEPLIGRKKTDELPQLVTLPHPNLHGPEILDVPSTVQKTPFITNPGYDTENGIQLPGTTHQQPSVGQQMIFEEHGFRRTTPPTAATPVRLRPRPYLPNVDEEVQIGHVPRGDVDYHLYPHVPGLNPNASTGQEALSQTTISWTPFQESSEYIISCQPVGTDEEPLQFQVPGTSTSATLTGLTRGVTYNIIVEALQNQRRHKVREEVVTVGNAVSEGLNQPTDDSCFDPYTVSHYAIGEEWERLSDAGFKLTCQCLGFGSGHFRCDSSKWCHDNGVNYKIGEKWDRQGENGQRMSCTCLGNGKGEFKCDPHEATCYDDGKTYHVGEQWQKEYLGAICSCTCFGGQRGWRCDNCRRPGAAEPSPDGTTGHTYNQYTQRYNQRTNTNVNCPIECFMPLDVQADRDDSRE

Legend:
fibronectin (FN) (mouse) [1] = target: fibronectin (FN) (mouse) (UniProt P11276); experiment: immunofluorescent co-staining of lung sections (co-localization)
fibronectin (FN) (mouse) [2] = target: fibronectin (FN) (mouse) (UniProt P11276); experiment: merged immunofluorescent staining for LOX and FN in pulmonary metastatic lesions (co-localization)

binding (fibronectin (FN) (mouse) [1]): binds
binding (fibronectin (FN) (mouse) [2]): binds
B1: human lysyl oxidase (hLOX), secreted by human tumor cells (MDA231) (enzyme)
chain: DDPYNPYKYSDDNPYYNYYDTYERPRPGGRYRPGYGTGYFQYGLPDLVADPYYIQASTYVQKMSMYNLRCAAEENCLASTAYRADVRDYDHRVLLRFPQRVKNQGTSDFLPSRPRYSWEWHSCHQHYHSMDEFSHYDLLDANTQRRVAEGHKASFCLEDTSCDYGYHRRFACTAHTQGLSPGCYDTYGADIDCQWIDITDVKPGNYILKVSVNPSYLVPESDYTNNVVRCDIRYTGHHAYASGCTISPY
